One molecule from patent US12351855B2, “Bioelectronic circuits, systems and methods for preparing and using them” (priority 2019, dated 2025) can be followed below.

The nature of the data set: Conductance of biotinylated ϕ29 polymerase wired into streptavidin-functionalized palladium junction.

B1: bis-biotinylated polymerase: exonuclease-deleted ϕ29 polymerase with biotinylated Avitags inserted between G111/K112 and E279/D280 (protein)
chain: MKHMPRKMYSCAFATTTKVEDCRVWAYGYMNIEDHSEYKIGNSLDEFMAWVLKVQADLYFHNLKFDGAFIINWLERNGFKWSADGLPNTYNTIISRMGQWYMIDICLGYKGGLNDIFEAQKIEWHEKRKIHTVIYDSLKKLPFPVKKIAKDFKLTVLKGDIDYHKERPVGYKITPEEYAYIKNDIQIIAEALLIQFKQGLDRMTAGSDSLKGFKDIITTKKFKKVFPTLSLGLDKEVRYAYRGGFTWLNDRFKEKEIGEGMVFDVNSLYPAQMYSRLLPYGEPIVFEGKYVWDEGLNDIFEAQKIEWHEDYPLHIQHIRCEFELKEGYIPTIQIKRSRFYKGNEYLKSSGGEIADLWLSNVDLELMKEHYDLYNVEYISGLKFKATTGLFKDFIDKWTYIKTTSEGAIKQLAKLMLNSLYGKFASNPDVTGKVPYLKENGALGFRLGEEETKDPVYTPMGVFITAWARYTTITAAQACYDRIIYCDTDSIHLTGTEIPDVIKDIVDPKKLGYWAHESTFKRAKYLRQKTYIQDIYMKEVDGKLVEGSPDDYTDIKFSVKCAGMTDKIKKEVTFENFKVGFSRKMKPKPVQVPGGVVLVDDTFTIK
As for B1, the “current after formation of streptavidin-ϕ29 polymerase contact” value (at 50 mV bias) is “about 60 pA”. Further, the highest conductance feature entry (thiolated streptavidin on Pd electrodes, 50 mV bias) is listed as “about 4 nS”.
